# In the supplement of paper PMC8256030:
# “And” between values parts separate entries of the source, which are not always exact repeats. Equal entries are not always repeated. Structures can show the parent of a compound that is named as a salt. Some of the results follow. Repeats in this data set agree poorly, so a single value says little.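 HEK293T cells were given each compound shortly before transfection with a reporter in which red mCherry is followed by the SARS-CoV-2 frameshift element and then GFP in the −1 frame, so GFP appears only after frameshifting.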
# Tested on: HEK293T
# Assay: percent viability (nuclei count) relative to control; higher = more viable cells
# Conditions: 10 µM; 24 h
row,SMILES,percent viability
1,Cc1ccc(C(C)C)c(O)c1 [Thymol],259%
2,COc1cc([C@@H]2c3cc4c(cc3[C@@H](O[C@@H]3O[C@@H]5CO[C@@H](c6cccs6)O[C@H]5[C@H](O)[C@H]3O)[C@H]3COC(=O)[C@H]23)OCO4)cc(OC)c1O [Vumon],75.1%
3,CC(=O)OCC(COC(C)=O)OC(C)=O [triacetin],86.9%
4,CN1C(C(=O)Nc2ccccn2)=C(O)c2sc(Cl)cc2S1(=O)=O,159%
5,O=C(O)[C@@H]1C[C@H](CP(=O)(O)O)CCN1 (racemic) [selfotel],87%
6,NS(=O)(=O)c1cc2c(cc1C(F)(F)F)NC(Cc1ccccc1)NS2(=O)=O (centres undefined) [bendroflumethiazide],312%
7,Nc1ccc(C(=O)O)cc1,183%
8,CC[C@@]1(O)C(=O)OCc2c1cc1n(c2=O)Cc2cc3c([N+](=O)[O-])cccc3nc2-1 [rubitecan],18.5%
9,CN1CCC(=C2c3ccccc3CCc3sccc32)CC1,334%
10,CCCCc1nc(Cl)c(CO)n1Cc1ccc(-c2ccccc2-c2nnn[nH]2)cc1 [Losartan potassium],69.2%
11,CCCCC(CC)CN=C(N)NC(N)=NCCCCCCN=C(N)NC(N)=NCC(CC)CCCC (centres undefined),217%
12,Nc1nc(=O)c2nc(CNc3ccc(C(=O)N[C@@H](CCC(=O)O)C(=O)O)cc3)cnc2[nH]1 [folic acid],156%
13,COc1cc([C@@H]2c3cc4c(cc3[C@@H](O[C@@H]3O[C@@H]5CO[C@@H](C)O[C@H]5[C@H](O)[C@H]3O)[C@H]3COC(=O)[C@H]23)OCO4)cc(OC)c1O [Etoposide],194%
14,Cc1cccc(C)c1OCC(C)N (centres undefined),292%
15,N=C(N)c1ccc(CNC(=O)[C@@H]2CCN2C(=O)[C@H](NCC(=O)O)C2CCCCC2)cc1 [melagatran],246%
16,CC(=O)N[C@H](Cc1ccc2ccccc2c1)C(=O)N[C@H](Cc1ccc(Cl)cc1)C(=O)N[C@H](Cc1cccnc1)C(=O)N[C@@H](CO)C(=O)N[C@@H](Cc1ccc(O)cc1)C(=O)N[C@H](CCCNC(N)=O)C(=O)N[C@@H](CC(C)C)C(=O)N[C@@H](CCCNC(=N)N)C(=O)N1CCC[C@H]1C(=O)N[C@H](C)C(N)=O [Cetrotide],306%
17,Cc1cc(NC(=O)C2=C(O)c3ccccc3S(=O)(=O)N2C)no1,224%
18,CCCC1([C@H](O)C/C=C/[C@H]2[C@H](O)CC(=O)[C@@H]2CCCCCCC(=O)OC)CCC1 [(R)-Butaprost],134%
19,C[N+](C)(CCOc1ccccc1)Cc1ccccc1.O=C([O-])c1cc2ccccc2cc1O [bephenium hydroxynaphthoate],52.5%
20,Cc1ncc(C[n+]2csc(CCO)c2C)c(N)n1 [Vitamin B1],240%

# Compounds listed so far containing an NH in an aromatic ring, in the order listed:
row,SMILES,percent viability
10,CCCCc1nc(Cl)c(CO)n1Cc1ccc(-c2ccccc2-c2nnn[nH]2)cc1 [Losartan potassium],69.2%
12,Nc1nc(=O)c2nc(CNc3ccc(C(=O)N[C@@H](CCC(=O)O)C(=O)O)cc3)cnc2[nH]1 [folic acid],156%

# (continued)

row,SMILES,percent viability
1,CCCCC[C@H](O)/C=C/[C@H]1[C@H](O)CC(=O)[C@@H]1CCCCCCC(=O)O [Alprostadil],201%
2,CC(C)(Oc1ccc(C2CC2(Cl)Cl)cc1)C(=O)O (centres undefined) [ciprofibrate],197%
3,CC(=O)SC[C@H](Cc1ccccc1)C(=O)NCC(=O)OCc1ccccc1 [dexecadotril],267%
4,CC1=C(/C=C/C(C)=C/C=C/C(C)=C/C(=O)Nc2ccc(O)cc2)C(C)(C)CCC1 [Fenretinide],24.5%
5,CC(C)C(=O)Nc1ccc([N+](=O)[O-])c(C(F)(F)F)c1 [flutamide],105% and 128%
6,C[C@H]1[C@H](O)O[C@@H]2O[C@@]3(C)CC[C@H]4[C@H](C)CC[C@@H]1[C@@]24OO3,48.9%
7,CCC(=O)O[C@]1(C(=O)CCl)[C@@H](C)C[C@H]2[C@@H]3CCC4=CC(=O)C=C[C@]4(C)[C@@]3(F)[C@@H](O)C[C@@]21C,240%
8,COc1ccc2c3c1O[C@H]1C[C@@H](O)C=C[C@@]31CCN(C)C2 [galantamine],235% and 152%
9,CN(C)c1ccc(O)c2c1C[C@H]1C[C@H]3[C@H](N(C)C)C(=O)C(C(N)=O)=C(O)[C@@]3(O)C(=O)C1=C2O [Minocycline],199%
10,CO[C@@]12[C@H](COC(N)=O)C3=C(C(=O)C(C)=C(N)C3=O)N1C[C@@H]1N[C@@H]12 [Mitomycin C],253%
11,CC(C)Cn1cnc2c(N)nc3ccccc3c21 [imiquimod],224% and 284%
12,NC(N)=NC(=O)Cc1c(Cl)cccc1Cl [Guanfacine·HCl],173%
13,CC1(C)S[C@@H]2[C@H](NC(=O)[C@H](NC(=O)N3CCN(S(C)(=O)=O)C3=O)c3ccccc3)C(=O)N2[C@H]1C(=O)O [Mezlin],248%
14,O=C(O)CCCCCCCC(=O)O [azelaic acid],189%
15,CC[C@H](C)C(=O)O[C@H]1C[C@@H](C)C=C2C=C[C@H](C)[C@H](CC[C@@H]3C[C@@H](O)CC(=O)O3)[C@H]21 [lovastatin],242% and 97.7%
16,N=C(N)N/N=C/c1c(Cl)cccc1Cl [guanabenz],159%
17,CC(C)=CCC[C@](C)(O)[C@@H]1CC=C(C)CC1 [levomenol],97.7%
18,O=S(=O)([O-])NC1CCCCC1.[Na+] [sodium cyclamate],158%
19,C[C@]12CCC(=O)C=C1CC[C@@H]1[C@@H]2[C@@H](O)C[C@@]2(C)[C@H]1CC[C@]2(O)C(=O)CS [tixocortol],290%
